# Library screen at single concentrations

Amino acid sequences for entries named in this document (tags omitted). Residues count along the entry.
UniProt P9WNZ1, whole entry: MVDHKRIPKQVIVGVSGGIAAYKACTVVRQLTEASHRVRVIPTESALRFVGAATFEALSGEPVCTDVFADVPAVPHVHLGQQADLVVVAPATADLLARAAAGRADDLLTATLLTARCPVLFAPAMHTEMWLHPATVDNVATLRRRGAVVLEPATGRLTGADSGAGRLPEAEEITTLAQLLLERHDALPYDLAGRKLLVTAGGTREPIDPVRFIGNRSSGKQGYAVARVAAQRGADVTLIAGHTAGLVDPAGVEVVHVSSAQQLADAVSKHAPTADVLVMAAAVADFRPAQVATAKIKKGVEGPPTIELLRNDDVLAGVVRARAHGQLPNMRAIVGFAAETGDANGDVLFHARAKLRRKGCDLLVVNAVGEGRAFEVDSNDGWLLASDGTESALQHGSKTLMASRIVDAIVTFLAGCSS
UniProt Q8IDJ8, 1-583: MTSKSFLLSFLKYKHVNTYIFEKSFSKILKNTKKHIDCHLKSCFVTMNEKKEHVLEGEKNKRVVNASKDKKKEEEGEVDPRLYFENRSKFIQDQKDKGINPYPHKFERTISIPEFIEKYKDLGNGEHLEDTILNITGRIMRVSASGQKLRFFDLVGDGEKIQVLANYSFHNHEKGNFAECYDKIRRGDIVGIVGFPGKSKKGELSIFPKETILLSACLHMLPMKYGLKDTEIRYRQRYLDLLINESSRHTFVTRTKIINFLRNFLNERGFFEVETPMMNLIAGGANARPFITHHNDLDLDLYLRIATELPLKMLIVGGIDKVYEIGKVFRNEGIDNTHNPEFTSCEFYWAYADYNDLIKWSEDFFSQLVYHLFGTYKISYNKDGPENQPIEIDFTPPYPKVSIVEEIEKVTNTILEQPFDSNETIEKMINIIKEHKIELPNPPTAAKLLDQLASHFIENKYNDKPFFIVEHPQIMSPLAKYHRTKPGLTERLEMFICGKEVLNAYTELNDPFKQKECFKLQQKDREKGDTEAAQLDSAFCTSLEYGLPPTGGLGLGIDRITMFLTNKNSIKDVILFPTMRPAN
UniProt P9WFT3, whole entry: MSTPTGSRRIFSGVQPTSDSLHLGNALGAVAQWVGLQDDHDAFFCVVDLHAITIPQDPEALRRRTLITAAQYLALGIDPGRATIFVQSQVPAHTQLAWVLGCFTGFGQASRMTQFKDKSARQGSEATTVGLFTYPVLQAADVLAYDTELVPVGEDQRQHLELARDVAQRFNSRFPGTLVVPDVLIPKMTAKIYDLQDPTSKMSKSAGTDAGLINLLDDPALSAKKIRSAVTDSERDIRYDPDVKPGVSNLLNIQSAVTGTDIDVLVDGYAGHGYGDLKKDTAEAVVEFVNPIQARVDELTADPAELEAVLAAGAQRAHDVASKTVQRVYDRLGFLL
UniProt I6X8D2, whole entry: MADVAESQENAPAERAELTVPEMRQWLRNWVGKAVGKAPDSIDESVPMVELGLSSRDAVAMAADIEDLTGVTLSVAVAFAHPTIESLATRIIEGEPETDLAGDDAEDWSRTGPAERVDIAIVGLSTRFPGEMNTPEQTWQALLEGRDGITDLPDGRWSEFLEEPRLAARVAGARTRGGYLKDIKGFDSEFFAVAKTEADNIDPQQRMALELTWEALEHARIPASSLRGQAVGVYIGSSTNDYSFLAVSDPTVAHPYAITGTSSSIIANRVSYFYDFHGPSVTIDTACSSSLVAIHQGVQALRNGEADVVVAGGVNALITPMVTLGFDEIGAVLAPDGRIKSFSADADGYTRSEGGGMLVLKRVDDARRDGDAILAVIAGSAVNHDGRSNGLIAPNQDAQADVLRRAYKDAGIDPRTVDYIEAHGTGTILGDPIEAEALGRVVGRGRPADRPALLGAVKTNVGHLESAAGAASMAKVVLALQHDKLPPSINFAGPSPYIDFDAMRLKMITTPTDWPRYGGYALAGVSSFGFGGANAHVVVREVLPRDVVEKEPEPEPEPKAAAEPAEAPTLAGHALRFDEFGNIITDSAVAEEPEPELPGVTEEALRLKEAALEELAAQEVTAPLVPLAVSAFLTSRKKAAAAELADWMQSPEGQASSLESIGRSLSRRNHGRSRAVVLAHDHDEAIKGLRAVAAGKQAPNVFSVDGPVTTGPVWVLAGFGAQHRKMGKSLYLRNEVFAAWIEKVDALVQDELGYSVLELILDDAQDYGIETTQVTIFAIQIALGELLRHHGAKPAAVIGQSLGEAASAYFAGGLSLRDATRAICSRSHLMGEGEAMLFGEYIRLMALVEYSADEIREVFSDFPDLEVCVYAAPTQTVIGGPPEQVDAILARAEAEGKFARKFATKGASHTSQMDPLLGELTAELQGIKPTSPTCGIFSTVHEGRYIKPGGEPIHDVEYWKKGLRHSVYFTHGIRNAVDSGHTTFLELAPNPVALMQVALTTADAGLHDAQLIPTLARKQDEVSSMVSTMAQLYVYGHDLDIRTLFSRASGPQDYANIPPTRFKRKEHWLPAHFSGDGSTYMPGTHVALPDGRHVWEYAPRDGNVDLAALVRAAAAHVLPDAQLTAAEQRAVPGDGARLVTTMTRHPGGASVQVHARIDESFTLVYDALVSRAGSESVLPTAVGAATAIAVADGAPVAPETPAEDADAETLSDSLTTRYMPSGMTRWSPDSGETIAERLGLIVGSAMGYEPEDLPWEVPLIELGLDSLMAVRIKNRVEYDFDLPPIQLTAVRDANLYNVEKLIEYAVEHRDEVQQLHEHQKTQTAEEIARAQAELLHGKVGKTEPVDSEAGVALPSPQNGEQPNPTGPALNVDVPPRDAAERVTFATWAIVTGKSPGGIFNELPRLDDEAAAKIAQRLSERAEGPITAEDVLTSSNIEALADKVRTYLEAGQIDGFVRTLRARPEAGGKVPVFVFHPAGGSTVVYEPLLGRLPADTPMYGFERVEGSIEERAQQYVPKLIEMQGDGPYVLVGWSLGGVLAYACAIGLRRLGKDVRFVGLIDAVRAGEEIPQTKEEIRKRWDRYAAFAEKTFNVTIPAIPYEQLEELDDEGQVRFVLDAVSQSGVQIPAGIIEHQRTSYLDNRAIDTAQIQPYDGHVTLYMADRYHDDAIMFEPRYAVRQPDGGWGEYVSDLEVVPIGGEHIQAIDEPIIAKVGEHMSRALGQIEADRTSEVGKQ

From ChEMBL document CHEMBL3988442, “University of Dundee, Small-Polar-MMV Screening Library” (2021).

A: 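Enzyme assay of CoaBC with a phosphate dye (Biomol Green) read at 650 nm. Target: Coenzyme A biosynthesis protein CoaBC, Mycobacterium tuberculosis (UniProt P9WNZ1). Tested at 30 µM. Direction is inferred from only a few compounds that gave an IC50; most scored high, so higher reads as stronger inhibition. Most strong results did not repeat in a second test. About 67,000 compounds were tested under these conditions; 0.06% (about 40) showed 50% or more at least once.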
B: 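Lysine-tRNA ligase, Plasmodium falciparum 3D7 (UniProt Q8IDJ8). Enzyme assay of the cytosolic lysyl-tRNA synthetase in 384-well plates, read by luminescence. Concentration: 30 µM. Higher reads as stronger inhibition, judged from the few compounds that gave an IC50. About 69,000 compounds were tested under these conditions; 0.071% (about 49) showed 50% or more at least once.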
C: 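Assay of Toxoplasma gondii numbers, read through their beta-galactosidase reporter with a colour substrate. Concentration: 10 µM. Higher reads as fewer parasites (inferred from which compounds were picked for retests). Of about 67,000 compounds tested this way, about 260 (0.38%) reached 50% or more in at least one test.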
D: 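Tryptophan-tRNA ligase, Mycobacterium tuberculosis (UniProt P9WFT3). Enzyme assay of tryptophanyl-tRNA synthetase; the read-out is not stated. Compounds at 10 µM. Higher most likely means stronger inhibition; the record gives no direction and few retests gave an IC50. Size under these conditions: about 65,000 compounds, about 64 of them at 50% or above in at least one test.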
E: 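Enzyme assay of the thioesterase domain of polyketide synthase 13; the read-out is not stated. Target: Polyketide synthase Pks13, Mycobacterium tuberculosis (UniProt I6X8D2). Tested at 30 µM. Higher reads as stronger inhibition (inferred from which compounds were picked for retests). Size under these conditions: about 67,000 compounds, about 300 of them at 50% or above in at least one test.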

Values are the deposited “Percent Effect”, in %.
The record does not define 0% and 100%; most values in the screen are far below 50% and negative numbers occur (in some assays of this library far below -100).
The compounds are a random part of those screened.
Two or more numbers in one place are separate tests of the same structure; such repeats can differ widely.

{"structure": "CCn1c(Cn2cncn2)nnc1C1CCN(C(=O)CCSC)CC1", "A": 4.405, "B": 4.213, "C": 2.924, "D": 2.347, "E": -15.41}
{"structure": "Cc1ccc(CN2C(=O)CC[C@]23CC[C@@H](NC2CCOC2)CC3)cc1.O=C(O)C(F)(F)F", "stereo": "stereo partly drawn", "C": -16.36}
{"structure": "CNC(=O)[C@H]1C[C@@H]2CN(S(=O)(=O)c3ccccc3)C[C@@H]2N1C", "A": -3.636, "B": 3.174, "D": 0.7457, "E": -8.394}
{"structure": "CN(Cc1ccncc1)C(CO)c1cccc(F)c1", "stereo": "stereo not drawn", "A": 2.152, "B": -0.2471, "C": 4.834, "D": 2.855, "E": -6.166}
{"structure": "Cc1cccnc1CN1CCC2(CC(Nc3ccncn3)C2)C1", "stereo": "stereo not drawn", "A": 5.569, "B": 2.637, "C": 4.221, "E": 2.161}
{"structure": "CCc1nc(C)c(CN2CCCC(c3nn(C)c(=O)n3CC)C2)[nH]1", "stereo": "stereo not drawn", "A": "9.524 & 43.78", "B": 9.867, "C": 17.1, "D": 0.6156, "E": -26.55}
{"structure": "CC(C)Sc1ccc(N2CCN(Cc3ccccn3)CC2)nn1", "A": 1.587, "B": 3.082, "C": -0.268, "D": -0.8895, "E": -2.109}
{"structure": "CN1CC(C(=O)NC2(c3cccc(F)c3)CCOCC2)CC1=O", "stereo": "stereo not drawn", "A": 1.899, "B": 5.146, "C": -13.98, "D": 1.898, "E": 7.513}
{"structure": "CN1CCOC(CNCc2coc(-c3ccccc3)n2)C1", "stereo": "stereo not drawn", "A": 6.17, "B": 5.155, "D": 3.068, "E": -20.14}
{"structure": "c1ccc(-c2noc(CNC3CCCN(c4cccnn4)C3)n2)nc1", "stereo": "stereo not drawn", "A": -2.071, "B": 4.769, "C": -0.1092, "D": 1.432, "E": -27.31}
{"structure": "Cc1nn(C)c(Cl)c1CNCc1cccnc1N1CCOCC1", "A": 10.39, "B": 2.705, "D": 3.072, "E": -16.18}
{"structure": "CCN(CC)CC[C@H]1CN(C(=O)c2ccc(F)cc2)CC[C@H]1CC(=O)O", "A": 11.51, "B": 5.076, "C": -8.16, "D": 1.28, "E": -2.677}
{"structure": "CN1C(=O)C(c2ccccc2)CC12CCN(CCN1CCCC1=O)CC2", "stereo": "stereo not drawn", "A": 2.337, "B": -4.532, "D": -4.045, "E": -16.27}
{"structure": "COCCNC(=O)c1nnc2ccc(N3CCOCC3)cc2n1", "A": -5.312, "B": -3.04, "C": 3.569, "D": 2.72}
{"structure": "Fc1ccc(CN2CCC(c3n[nH]c4ncccc34)CC2)cc1F", "A": 2.225, "B": -3.542, "D": -3.25, "E": -22.69}
{"structure": "O=C(O)C(F)(F)F.O=C(O)C(F)(F)F.O=S(=O)(C1CC1)N1CCC2(CCCN(Cc3ccccn3)C2)C1", "stereo": "stereo not drawn", "C": -5.119}

2 of the entries, repeated:

- CCN(CC)CC[C@H]1CN(C(=O)c2ccc(F)cc2)CC[C@H]1CC(=O)O : A: 11.51%; B: 5.076%; C: -8.16%; D: 1.28%; E: -2.677%
- O=C(O)C(F)(F)F.O=C(O)C(F)(F)F.O=S(=O)(C1CC1)N1CCC2(CCCN(Cc3ccccn3)C2)C1 (stereo not drawn) : C: -5.119%